# Columns and labels:
# [1] = tested on: MPO in HL-60-derived granulocytes (dHL-60); assay: Colocalization with anti-MPO antibody in fixed dHL-60 cells; assay type: cell-based, human
# MPO in hPMN = assay: Colocalization with anti-MPO antibody in fixed hPMN; assay type: cell-based, human
smiles,measurement,setting,value
CN(C)c1ccc2c3c(cccc13)C(=O)N(CCn1c(=S)[nH]c(=O)c3[nH]cnc31)C2=O [Probe 1],Mander's split coefficient M1,[1]; fixed dHL-60,0.79
same,Mander's split coefficient M2,[1]; fixed dHL-60,0.75
same,Pearson's correlation coefficient (PCC),"[1]; fixed dHL-60, PMA, 1 µM probe, 2.6 µm Z-stack",0.77
same,Van Steensel's CCF,"[1]; fixed dHL-60, PMA, 1 µM probe, peak at dx 0, 2.6 µm Z-stack",0.77
same,Mander's split coefficient M1,MPO in hPMN,0.66
same,Mander's split coefficient M2,MPO in hPMN,0.74
same,Pearson's correlation coefficient (PCC),"MPO in hPMN; PMA, 1 µM probe, 2.6 µm Z-stack",0.74
same,Van Steensel's CCF,"MPO in hPMN; PMA, 1 µM probe, peak at dx 1, 2.6 µm Z-stack",0.74

# From paper PMC11557929, “Environment-sensitive turn-on fluorescent probe enables live cell imaging of myeloperoxidase activity during NETosis” (Communications Chemistry, 2024)
